From PubChem BioAssay AID463193 (University of Pittsburgh Molecular Library Screening Center, 2010) come the findings set out here.

Structures are written as SMILES. The list shows a part of the results.

A short description of the assay: GFP-LC3 puncta formation changes – imaging, high-content, MEF GFP-LC3, primary screen (AID 463193).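 Further: cell loss after 18 h compound exposure.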 To be noted: autophagy, measured here: cell loss, nuclei count, at 10 µM.
As for `CN(C)CCOC(=O)C(O)(c1ccccc1)C1CCCCC1` (stereo not drawn), the toxicity was -1.25%.
Take `COc1ccc(NP(C)(=O)Oc2ccccc2OC)cc1` (stereo not drawn): the toxicity was 19.3%.
Turning to `COC(=O)c1cc2c(s1)N=C(c1ccccc1)N(C)P2(=O)N1CCOCC1` (stereo not drawn), the toxicity was found to be 9.27%.
As for `Cc1ccc(OP(=O)(Nc2ccccn2)Oc2ccc(C)cc2)cc1`, the toxicity turned out to be 6.77%.
For the compound `CC(=O)NC(SC(=S)N(CC(C)C)CC(C)C)C(Cl)(Cl)Cl` (stereo not drawn), the toxicity is 0.994%.
As for `CCN(CC)CCCOC(=O)C(O)(c1ccccc1)C1CCCCC1` (stereo not drawn), the toxicity was -1.3%.
The result for `CCC(=O)N1C2C3N(C(=O)CC)C1C1N(C(=O)CC)C(C(N1C(=O)CC)N3C(=O)CC)N2C(=O)CC` reads 2%; that for `CP(=O)(Nc1ccccc1)Oc1ccc(F)cc1` (stereo not drawn), 1.81%; that for `O=c1c2cc([N+](=O)[O-])ccc2[nH]c2c([N+](=O)[O-])cc([N+](=O)[O-])cc12`, 49.3%.
For `CCNC(=S)/N=C(\N)N[N+](=O)[O-]`, the toxicity came out at 16.4%.
In the case of `O=C(NC1CCS(=O)(=O)C1)NP(=S)(Oc1ccccc1)Oc1ccccc1` (stereo not drawn), the toxicity is 19.2%.
As for `c1ccc(-c2nn[nH]n2)c(-c2nn[nH]n2)c1`, the toxicity is -3.42%.
The result for `CCOC(=O)NC(Sc1ccccc1)C(Cl)(Cl)Cl` (stereo not drawn) reads -32%.
In the case of `CCOC(=O)c1ccc(NP(C)(=O)Oc2ccc(F)cc2)cc1` (stereo not drawn), the toxicity came to 6.75%.
On to `COc1ccc(OP(C)(=O)Nc2ccc(SC(F)(F)F)cc2)cc1` (stereo not drawn), for which the toxicity was -1.88%.
The result for `O=C(OCCN1CCN(CCOCc2ccccc2)CC1)C(O)(c1ccccc1)c1ccccc1` reads -7.66%; that for `CC(=O)Nc1ccc(Oc2c([N+](=O)[O-])cc([N+](=O)[O-])cc2[N+](=O)[O-])cc1`, -3.08%.
Regarding `O=P1(Nc2nc3ccc(Cl)cc3s2)COc2ccccc2O1` (stereo not drawn), the toxicity came out at 5.47%.
As to `CCOc1ccc(C2=NCC(CBr)S2)cc1` (stereo not drawn), the toxicity was 1.47%.
Consider `CP(=O)(Nc1ccccc1F)Oc1ccccc1` (stereo not drawn), for which the toxicity was -5.92%.
Next, `CC(C)(C)C(=O)NC(Sc1ccccc1)C(Cl)(Cl)Cl` (stereo not drawn): 24.2%; `CC(C)c1ccc(OP(C)(=O)Nc2ccc(SC(F)(F)F)cc2)cc1` (stereo not drawn): 3.36%; `Cc1ccc(C)c(NP(C)(=O)Oc2ccccc2)c1` (stereo not drawn): -7.67%.
The result for `Cc1cc(C)cc(OP(C)(=O)Nc2ccccn2)c1` (stereo not drawn) reads -3.52%; that for `Cc1ccc(NCCc2c([N+](=O)[O-])cc([N+](=O)[O-])cc2[N+](=O)[O-])cc1`, 2.57%.
In the case of `CCOP(=O)(Nc1cccc2ccccc12)OCC`, the toxicity is 10.6%.
`COc1cc(C(=O)NCC2(N3CCOCC3)CCCCC2)cc(Cl)c1OC(C)C`: the toxicity amounted to 3.35%.
As to `CCOC(=O)c1ccc(NP(C)(=O)Oc2cc(C)cc(C)c2)cc1` (stereo not drawn), the toxicity was determined as 5.05%.
As for `Cc1cccc(OCC(=O)OC2CN3CCC2CC3)c1` (stereo not drawn), the toxicity was -9.48%.
Regarding `Cc1cc(C)cc(OP(C)(=O)Nc2ccc(C)cc2C)c1` (stereo not drawn), the toxicity turned out to be 3.14%.
`O=[N+]([O-])c1ccc2c(c1)nnn2O`: the toxicity was -38.1%.
For `CC1=NCCc2c1[nH]c1ccccc21.O=[N+]([O-])c1cc([N+](=O)[O-])c(O)c([N+](=O)[O-])c1`, the toxicity came to 1.31%.
`CCOP1(=S)c2c(C)nn(CCC#N)c2N=C(c2ccc(F)cc2)N1C` (stereo not drawn): the toxicity was -8.01%.
Regarding `CCOP1(=S)c2c(C)nn(CCC#N)c2N=C(c2ccccc2F)N1C` (stereo not drawn), the toxicity is -1.79%.
On to `O=P(Nc1nccs1)(Oc1ccccc1)Oc1ccccc1`, for which the toxicity came out at 9.41%.
For `O=P(Nc1nccs1)(c1ccccc1)c1nc2ccccc2s1` (stereo not drawn), the toxicity was 11.2%.
The result for `COc1ccccc1OP(C)(=O)Nc1c(C)cccc1C` (stereo not drawn) reads 0.0844%; that for `CN1CCCCC1COC(=O)C1(O)c2ccccc2CCc2ccccc21` (stereo not drawn), 8.72%; that for `O=P1(Nc2ncccn2)COc2ccccc2OC1`, -34.9%.
Next, `Cc1ccc(OCC(=O)OC2CN3CCC2CC3)cc1` (stereo not drawn): 3.37%.
Regarding `O=P1(Nc2ccc(Br)cn2)COc2ccccc2OC1`, the toxicity is -5.9%.
Take `CCCOc1ccc(NP(C)(=O)Oc2ccc(Cl)cc2)cc1` (stereo not drawn): the toxicity was -17.9%.
As to `CP(=O)(Nc1ccc(SC(F)(F)F)cc1)Oc1ccccc1` (stereo not drawn), the toxicity is 2.01%.
With `COc1cc(C2NCCC3(OCCO3)C2(C)C)cc(OC)c1OC.O=[N+]([O-])c1cc([N+](=O)[O-])c(O)c([N+](=O)[O-])c1` (stereo not drawn), the toxicity amounted to 1.21%.
Regarding `Cc1nn(-c2ccccc2)c2c1P(=O)(N1CCOCC1)N(C)C(c1ccccc1)=N2` (stereo not drawn), the toxicity amounted to 4.36%.
With `CC1CCC(C(C)C)C(OP(=O)(Nc2ccccn2)c2ccccc2)C1` (stereo not drawn), the toxicity is -11.9%.
Turning to `CN(C)C1(CNC(=O)c2ccc(S(C)(=O)=O)cc2)CCCCC1`, the toxicity came out at 11.6%.
As to `Cc1nc2ccc3ccccc3c2s1.O=[N+]([O-])c1cc([N+](=O)[O-])c(O)c([N+](=O)[O-])c1`, the toxicity is -17.6%.
As for `CC1(CBr)Cn2c(nc3ccccc3c2=O)S1` (stereo not drawn), the toxicity is -9.72%.
Take `CC(C)/C=N\N=C(\N)N[N+](=O)[O-]`: the toxicity is -22.4%.
The result for `O=P1(Nc2ccccn2)COc2ccccc2OC1` reads 21.2%; that for `O=[N+]([O-])c1cc([N+](=O)[O-])c(-n2nnc3ccccc32)c([N+](=O)[O-])c1`, 0.971%; that for `Clc1n[nH]nc1-c1nn[nH][15n]1`, 18.5%.
Next, `CCOC(=O)c1ccc(NP(C)(=O)Oc2ccc(OC)cc2)cc1` (stereo not drawn): 9.48%; `CCOP(C)(=S)SCC(=O)NC(C)C(=O)O` (stereo not drawn): 7.41%.
Regarding `CP(=O)(Nc1ccccn1)Oc1ccc(Cl)cc1` (stereo not drawn), the toxicity amounted to 25.5%.
Next, `CCC(C)N(CC(C)C)C(=S)SC(NC(C)=O)C(Cl)(Cl)Cl` (stereo not drawn): 4.59%; `COP1(=S)c2c(C)nn(CCC#N)c2N=C(c2ccc(F)cc2)N1C` (stereo not drawn): -2.2%.
